Hit rate of the full screen: of about 340,000 compounds, about 6,200 (1.8%) were called active. The inconclusive results got no clear call from the source; some entries with a clear call stand among them for comparison. Calls follow the shape of the dose curve; as a rule, active = well fitted activation curve with a large enough effect; inconclusive = small, poorly fitted or top-dose-only effect; inactive = no such curve, though single readings can be large or run the other way. Where the call is inconclusive, the potency comes from a doubtful curve fit.
Test: A quantitative high throughput screen for small molecules that induce DNA re-replication in SW480 colon adenocarcinoma cells. Also: nearly all actives have a fitted effect of over 55% in size.
Conditions: Hoechst DNA content imaging, 48 h; series mostly up to 46.1 µM
Method in brief: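 Cells (250 per well) received 23 nL compound or DMSO by pin tool and were kept 48 hr at 37 C, 5% CO2. Nuclei were then stained with Hoechst for 40 min and scanned for DNA content.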
Potency is read from the fitted curve at half-maximal effect.

Row | Compound | Potency
1 | COc1ccc(CCNC(=O)C2Cc3ccccc3C(=O)O2)cc1 (stereo unspecified) | inactive
2 | CS(=O)(=O)Nc1ccc([N+](=O)[O-])cc1Oc1ccccc1 | inactive
3 | CCOc1cc(/C=C2/SC(=S)N(CC3CCCO3)C2=O)ccc1O (stereo unspecified) | inconclusive: 29.1 µM [activator, single point]
4 | O=C(Nc1cccnc1)c1cc(-c2ccc(Cl)cc2)on1 | inconclusive: 0.231 µM [activator, full curve, poor fit]
5 | COc1ccc(OC)c(-n2c(N)c(C(=O)NCC3CCCO3)c3nc4ccccc4nc32)c1 (stereo unspecified) | active: 16.4 µM
6 | Cc1c(CCC(=O)O)c(=O)oc2cc(OCc3ccccc3Br)ccc12 | inactive
7 | C=CCNC(=S)NN(c1ccccc1)c1ccccc1 | inconclusive: 20.6 µM [activator, partial curve, poor fit]
8 | CC(C)(C)NCC(=Cc1ccccc1)C(=O)c1ccccc1 | active: 5.17 µM
9 | COc1ccc(OC)c(NC(=O)c2[nH]c(C)c(C(C)=O)c2C)c1 | inactive
10 | O=C(O)CCc1ccc(-c2ccc(Cl)cc2)o1 | inconclusive: 29.1 µM [activator, single point]
11 | CC1CC(OCC(O)CN2CCN(Cc3ccccc3)CC2)CC(C)(C)C1 (stereo unspecified) | inconclusive: 32.6 µM [activator, partial curve, poor fit]
12 | COc1ccc(-c2ccc(-c3noc(C(C)C)n3)c(OC)n2)cc1 | inconclusive: 20.6 µM [activator, single point]
13 | Nc1nc(N2CCN(C(=O)c3ccco3)CC2)nc2ccc(Br)cc12 | inactive
14 | COc1ccc(N(C)C(=O)c2cc3c(s2)-c2c(C)cccc2OC3)c(OC)c1 | inconclusive: 29.1 µM [activator, single point]
15 | Clc1ccccc1-c1nc2nc3ccccc3nc2n1-c1ccc2c(c1)OCO2 | inactive
16 | CCOc1cc(C(=O)NCC(C)CN(C)C)cc(OCC)c1OCC (stereo unspecified) | inconclusive: 25.9 µM [activator, single point]
17 | Cc1ccc(NS(=O)(=O)c2ccc(C(=O)NNC(=O)c3ccccc3O)cc2)cc1 | inconclusive: 14.6 µM [activator, partial curve]
18 | Cc1[nH]ncc1-c1nc2ccccc2[nH]1 | inactive
19 | CCCN(C(=O)C1CCCN(c2ncnc3c2nc2n3CCCCC2)C1)c1ccc(F)cc1 (stereo unspecified) | inactive
20 | COc1ccc(C2c3cc4c(cc3OC(NNC(N)=O)C2C)OCO4)cc1 (stereo unspecified) | inconclusive: 29.1 µM [activator, single point]
21 | O=C1CN(C(=O)CSc2nc3ccccc3c(=O)n2Cc2ccc(F)cc2)c2ccccc2N1 | inconclusive: 20.6 µM [activator, single point]

Structures listed so far that have an NH in an aromatic ring (two):
Row | Compound | Potency
9 | COc1ccc(OC)c(NC(=O)c2[nH]c(C)c(C(C)=O)c2C)c1 | inactive
18 | Cc1[nH]ncc1-c1nc2ccccc2[nH]1 | inactive
